Laboratory results published in the supplement of paper PMC10849652.
This is one part of the list.

Amino acid sequences for entries named in this document (tags omitted). A change or cut given only in a name is not applied to a line headed by its entry.
UniProt Q9BXF6: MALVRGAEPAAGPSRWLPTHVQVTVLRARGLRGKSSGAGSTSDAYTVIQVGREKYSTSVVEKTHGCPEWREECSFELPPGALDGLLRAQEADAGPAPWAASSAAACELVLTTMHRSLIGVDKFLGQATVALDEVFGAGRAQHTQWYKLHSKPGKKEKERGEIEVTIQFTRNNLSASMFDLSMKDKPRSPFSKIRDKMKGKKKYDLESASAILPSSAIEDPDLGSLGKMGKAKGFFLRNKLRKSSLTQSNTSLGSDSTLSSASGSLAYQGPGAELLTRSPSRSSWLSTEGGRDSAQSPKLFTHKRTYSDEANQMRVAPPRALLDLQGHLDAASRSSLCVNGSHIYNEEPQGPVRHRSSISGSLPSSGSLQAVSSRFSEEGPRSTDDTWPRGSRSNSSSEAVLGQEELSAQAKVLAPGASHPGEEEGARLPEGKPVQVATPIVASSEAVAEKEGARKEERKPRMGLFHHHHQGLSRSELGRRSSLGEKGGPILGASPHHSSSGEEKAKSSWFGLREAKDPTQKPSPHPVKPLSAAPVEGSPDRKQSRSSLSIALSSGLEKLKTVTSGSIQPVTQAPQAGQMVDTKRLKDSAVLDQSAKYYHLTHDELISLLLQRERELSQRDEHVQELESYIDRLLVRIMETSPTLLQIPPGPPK
UniProt Q13905: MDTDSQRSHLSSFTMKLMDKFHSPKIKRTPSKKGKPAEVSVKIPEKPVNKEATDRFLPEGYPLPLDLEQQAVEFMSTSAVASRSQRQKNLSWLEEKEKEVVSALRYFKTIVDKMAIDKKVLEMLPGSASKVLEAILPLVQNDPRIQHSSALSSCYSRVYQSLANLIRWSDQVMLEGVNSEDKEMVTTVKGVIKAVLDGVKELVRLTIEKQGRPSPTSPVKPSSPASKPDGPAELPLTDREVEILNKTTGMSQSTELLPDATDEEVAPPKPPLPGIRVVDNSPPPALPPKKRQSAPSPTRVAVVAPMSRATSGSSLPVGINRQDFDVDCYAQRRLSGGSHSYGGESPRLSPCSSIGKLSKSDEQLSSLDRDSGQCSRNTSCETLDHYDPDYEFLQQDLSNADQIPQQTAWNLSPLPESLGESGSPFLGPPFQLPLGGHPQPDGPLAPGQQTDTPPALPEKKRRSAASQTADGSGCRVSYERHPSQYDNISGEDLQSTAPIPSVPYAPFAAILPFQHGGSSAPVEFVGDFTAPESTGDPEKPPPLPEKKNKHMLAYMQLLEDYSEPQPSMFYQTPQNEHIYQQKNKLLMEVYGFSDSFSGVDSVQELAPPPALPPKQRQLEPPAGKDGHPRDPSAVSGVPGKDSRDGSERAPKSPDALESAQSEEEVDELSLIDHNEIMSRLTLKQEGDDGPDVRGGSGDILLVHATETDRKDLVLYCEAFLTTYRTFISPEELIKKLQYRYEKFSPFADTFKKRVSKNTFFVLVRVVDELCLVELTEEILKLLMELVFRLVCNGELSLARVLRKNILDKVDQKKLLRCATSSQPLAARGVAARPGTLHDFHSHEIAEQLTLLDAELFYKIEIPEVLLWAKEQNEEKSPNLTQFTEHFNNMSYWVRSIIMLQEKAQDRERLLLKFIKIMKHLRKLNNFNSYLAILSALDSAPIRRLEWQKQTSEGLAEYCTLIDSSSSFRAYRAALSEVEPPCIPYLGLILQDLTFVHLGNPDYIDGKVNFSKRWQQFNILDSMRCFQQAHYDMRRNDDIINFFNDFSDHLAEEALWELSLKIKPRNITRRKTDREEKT
UniProt O15315: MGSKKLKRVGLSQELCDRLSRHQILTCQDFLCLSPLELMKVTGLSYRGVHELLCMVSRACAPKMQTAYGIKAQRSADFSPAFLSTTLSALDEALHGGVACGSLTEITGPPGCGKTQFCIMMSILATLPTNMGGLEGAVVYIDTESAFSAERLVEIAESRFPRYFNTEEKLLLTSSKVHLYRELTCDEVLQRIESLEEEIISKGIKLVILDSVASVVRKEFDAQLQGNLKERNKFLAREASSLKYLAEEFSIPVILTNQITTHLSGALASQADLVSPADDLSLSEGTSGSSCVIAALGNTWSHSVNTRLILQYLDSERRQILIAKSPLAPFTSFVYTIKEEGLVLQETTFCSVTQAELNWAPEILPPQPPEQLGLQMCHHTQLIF
UniProt Q86WH2: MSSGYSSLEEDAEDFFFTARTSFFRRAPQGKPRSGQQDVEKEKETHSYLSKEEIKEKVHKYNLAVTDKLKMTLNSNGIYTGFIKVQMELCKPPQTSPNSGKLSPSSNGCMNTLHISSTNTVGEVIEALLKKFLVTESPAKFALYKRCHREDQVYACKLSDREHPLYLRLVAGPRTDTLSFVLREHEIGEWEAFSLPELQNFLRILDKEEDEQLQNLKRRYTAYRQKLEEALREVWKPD
UniProt Q15771: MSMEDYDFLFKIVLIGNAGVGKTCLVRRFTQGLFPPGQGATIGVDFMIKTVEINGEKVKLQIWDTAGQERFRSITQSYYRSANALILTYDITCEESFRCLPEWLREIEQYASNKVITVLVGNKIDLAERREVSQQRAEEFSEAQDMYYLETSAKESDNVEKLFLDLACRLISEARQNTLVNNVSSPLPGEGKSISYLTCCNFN
UniProt Q09028, whole entry, looked up: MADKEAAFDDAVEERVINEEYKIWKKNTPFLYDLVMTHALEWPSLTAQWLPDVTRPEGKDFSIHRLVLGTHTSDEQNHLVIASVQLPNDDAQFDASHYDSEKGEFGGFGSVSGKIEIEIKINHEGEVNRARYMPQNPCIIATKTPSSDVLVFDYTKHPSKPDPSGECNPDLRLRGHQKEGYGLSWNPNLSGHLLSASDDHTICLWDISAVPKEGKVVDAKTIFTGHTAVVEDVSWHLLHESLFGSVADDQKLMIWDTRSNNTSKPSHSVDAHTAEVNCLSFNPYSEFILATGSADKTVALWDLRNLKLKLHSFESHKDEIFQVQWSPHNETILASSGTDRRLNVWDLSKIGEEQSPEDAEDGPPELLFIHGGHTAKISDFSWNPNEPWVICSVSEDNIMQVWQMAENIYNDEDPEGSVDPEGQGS
UniProt Q9BYM8: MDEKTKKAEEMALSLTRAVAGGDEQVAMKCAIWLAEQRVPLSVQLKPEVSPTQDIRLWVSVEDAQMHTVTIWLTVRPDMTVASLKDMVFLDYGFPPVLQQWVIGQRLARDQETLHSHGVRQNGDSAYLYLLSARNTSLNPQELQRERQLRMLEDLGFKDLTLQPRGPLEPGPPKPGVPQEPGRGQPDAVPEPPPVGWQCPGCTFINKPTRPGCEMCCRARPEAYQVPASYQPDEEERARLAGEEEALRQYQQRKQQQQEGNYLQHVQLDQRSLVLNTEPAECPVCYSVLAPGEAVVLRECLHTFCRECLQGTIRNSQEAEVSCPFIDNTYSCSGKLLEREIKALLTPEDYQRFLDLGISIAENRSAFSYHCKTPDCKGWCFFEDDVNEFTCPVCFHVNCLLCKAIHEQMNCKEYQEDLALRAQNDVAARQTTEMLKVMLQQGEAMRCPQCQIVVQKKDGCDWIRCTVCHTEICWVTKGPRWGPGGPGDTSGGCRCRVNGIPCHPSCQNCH
UniProt Q96PK6: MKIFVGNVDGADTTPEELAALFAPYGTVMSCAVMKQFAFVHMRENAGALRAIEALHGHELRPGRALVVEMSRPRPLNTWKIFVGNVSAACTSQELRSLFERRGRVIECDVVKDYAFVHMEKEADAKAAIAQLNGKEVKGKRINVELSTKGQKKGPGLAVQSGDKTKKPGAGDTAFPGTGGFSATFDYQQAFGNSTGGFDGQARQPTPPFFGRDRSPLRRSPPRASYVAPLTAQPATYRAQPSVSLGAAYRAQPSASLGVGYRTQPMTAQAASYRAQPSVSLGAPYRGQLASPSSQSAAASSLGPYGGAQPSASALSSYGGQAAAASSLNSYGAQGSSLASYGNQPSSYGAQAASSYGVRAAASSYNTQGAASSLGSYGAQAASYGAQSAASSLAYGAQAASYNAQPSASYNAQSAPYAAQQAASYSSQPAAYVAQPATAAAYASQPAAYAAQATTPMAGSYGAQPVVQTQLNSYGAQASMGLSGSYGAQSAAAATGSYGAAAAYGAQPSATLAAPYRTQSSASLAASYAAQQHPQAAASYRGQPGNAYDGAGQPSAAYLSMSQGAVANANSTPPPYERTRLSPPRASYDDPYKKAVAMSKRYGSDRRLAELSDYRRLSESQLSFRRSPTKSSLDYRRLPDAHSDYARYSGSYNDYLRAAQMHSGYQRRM
UniProt Q9Y3L5: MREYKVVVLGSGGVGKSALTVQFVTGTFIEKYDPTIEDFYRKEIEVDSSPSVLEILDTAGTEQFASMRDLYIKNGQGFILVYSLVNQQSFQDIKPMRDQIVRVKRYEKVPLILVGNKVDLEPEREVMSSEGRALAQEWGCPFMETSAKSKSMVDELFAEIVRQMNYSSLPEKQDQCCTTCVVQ
UniProt P20337: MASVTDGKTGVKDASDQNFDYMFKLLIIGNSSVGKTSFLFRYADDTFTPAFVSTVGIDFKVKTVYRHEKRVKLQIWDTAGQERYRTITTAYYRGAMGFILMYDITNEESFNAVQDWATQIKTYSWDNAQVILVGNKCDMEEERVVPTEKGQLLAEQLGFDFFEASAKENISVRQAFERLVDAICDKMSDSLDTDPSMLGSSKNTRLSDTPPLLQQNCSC
UniProt Q15291, whole entry, looked up: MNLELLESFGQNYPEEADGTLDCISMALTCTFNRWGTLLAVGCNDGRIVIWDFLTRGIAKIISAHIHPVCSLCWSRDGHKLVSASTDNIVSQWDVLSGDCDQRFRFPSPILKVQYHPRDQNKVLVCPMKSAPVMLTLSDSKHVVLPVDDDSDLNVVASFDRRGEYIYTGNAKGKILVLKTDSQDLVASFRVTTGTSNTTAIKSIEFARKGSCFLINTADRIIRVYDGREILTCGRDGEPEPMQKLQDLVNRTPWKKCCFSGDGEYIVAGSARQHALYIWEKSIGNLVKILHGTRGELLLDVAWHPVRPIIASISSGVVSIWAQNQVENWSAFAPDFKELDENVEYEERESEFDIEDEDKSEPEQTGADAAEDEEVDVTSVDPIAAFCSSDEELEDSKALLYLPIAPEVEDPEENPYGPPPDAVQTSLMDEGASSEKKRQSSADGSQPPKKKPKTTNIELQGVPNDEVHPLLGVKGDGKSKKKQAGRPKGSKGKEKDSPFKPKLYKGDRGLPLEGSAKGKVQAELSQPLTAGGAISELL
UniProt P28749: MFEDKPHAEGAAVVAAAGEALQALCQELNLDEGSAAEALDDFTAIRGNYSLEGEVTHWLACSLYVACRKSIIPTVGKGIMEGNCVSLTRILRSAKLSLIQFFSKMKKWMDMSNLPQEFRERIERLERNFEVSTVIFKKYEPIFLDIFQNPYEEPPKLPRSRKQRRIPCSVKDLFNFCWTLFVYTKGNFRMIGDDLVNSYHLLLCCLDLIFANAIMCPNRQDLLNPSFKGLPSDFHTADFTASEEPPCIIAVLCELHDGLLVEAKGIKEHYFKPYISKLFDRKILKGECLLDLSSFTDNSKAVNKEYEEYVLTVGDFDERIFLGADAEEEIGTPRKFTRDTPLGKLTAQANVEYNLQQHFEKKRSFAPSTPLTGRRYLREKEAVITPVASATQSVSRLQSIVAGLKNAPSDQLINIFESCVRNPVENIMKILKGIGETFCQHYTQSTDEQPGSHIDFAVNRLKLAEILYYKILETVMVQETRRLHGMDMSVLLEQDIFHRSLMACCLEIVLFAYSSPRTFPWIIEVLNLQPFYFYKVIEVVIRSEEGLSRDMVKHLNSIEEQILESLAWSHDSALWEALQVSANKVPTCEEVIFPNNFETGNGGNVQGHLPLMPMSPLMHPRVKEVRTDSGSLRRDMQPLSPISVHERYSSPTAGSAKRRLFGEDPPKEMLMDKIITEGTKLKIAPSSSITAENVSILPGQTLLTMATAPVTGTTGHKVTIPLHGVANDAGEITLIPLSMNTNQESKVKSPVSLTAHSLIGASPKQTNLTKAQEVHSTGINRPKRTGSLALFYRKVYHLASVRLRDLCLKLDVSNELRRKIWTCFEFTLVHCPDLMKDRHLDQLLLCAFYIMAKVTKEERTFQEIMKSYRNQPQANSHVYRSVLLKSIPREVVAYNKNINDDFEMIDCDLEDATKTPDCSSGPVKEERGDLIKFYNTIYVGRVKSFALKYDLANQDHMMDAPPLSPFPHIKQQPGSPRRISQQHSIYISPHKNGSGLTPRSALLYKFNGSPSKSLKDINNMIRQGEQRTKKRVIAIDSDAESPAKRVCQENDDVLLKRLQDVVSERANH
UniProt O75771: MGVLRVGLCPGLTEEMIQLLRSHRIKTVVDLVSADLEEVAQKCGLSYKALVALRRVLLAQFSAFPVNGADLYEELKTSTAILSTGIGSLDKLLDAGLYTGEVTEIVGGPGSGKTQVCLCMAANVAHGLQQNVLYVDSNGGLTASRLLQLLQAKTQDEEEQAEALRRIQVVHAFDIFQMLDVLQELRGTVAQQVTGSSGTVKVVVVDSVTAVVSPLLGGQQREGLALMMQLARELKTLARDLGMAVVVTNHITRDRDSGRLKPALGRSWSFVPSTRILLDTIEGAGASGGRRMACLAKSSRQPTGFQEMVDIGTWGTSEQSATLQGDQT

Experiments:
Test in all cases: log2 fold change, soluble protein after heating vs DMSO (PISA); higher = thermal stabilisation; K562 cells, 10 uM, 30 min; active = over 0.2 and 3.5 SD of the protein, either way, in both replicates (recomputed)
[1] = compound: C[C@H](C1=CC=C(C=C1)C(=O)NC2=C3C=CNC3=NC=C2)N
Procedure, shortened: (§1)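 K562 cells at 2×10^6 cells/mL were treated with 10 μM compound for 30 min. Aliquots were heated for 3 min across 48°C-58°C, pooled, and extracted in PBS with 0.5% NP-40 at 4°C; soluble protein was the supernatant after 21,000xg for 90 min. Soluble protein was quantified by TMTpro 16plex LC-MS/MS with channel sums equalised, and reported as log2 fold change in thermal stability against DMSO controls, with values from duplicates.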

gandotinib = compound: Cc1cc(Nc2cc(CN3CCOCC3)c3nc(C)c(Cc4ccc(Cl)cc4F)n3n2)n[nH]1 [gandotinib]
Procedure, shortened: as §1

[2] = compound: Cc1cc(SCc2sc(-c3ccc(C(F)(F)F)cc3)nc2C)ccc1OCC(=O)O
Procedure, shortened: as §1

ispinesib = compound: Cc1ccc(C(=O)N(CCCN)[C@@H](c2nc3cc(Cl)ccc3c(=O)n2Cc2ccccc2)C(C)C)cc1 [ispinesib]
Procedure, shortened: as §1

bafetinib = compound: Cc1ccc(NC(=O)c2ccc(CN3CC[C@H](N(C)C)C3)c(C(F)(F)F)c2)cc1Nc1nccc(-c2cncnc2)n1 [bafetinib]
Procedure, shortened: as §1

[3] = compound: Cc1cccc(CC(=O)N2CCc3c2ccc(-c2cn(C)c4ncnc(N)c24)c3F)n1
Procedure, shortened: as §1

nilotinib = compound: Cc1cn(-c2cc(NC(=O)c3ccc(C)c(Nc4nccc(-c5cccnc5)n4)c3)cc(C(F)(F)F)c2)cn1 [nilotinib]
Procedure, shortened: as §1

[4] = compound: Cc1nc(Nc2n[nH]c3c2CN(C(=O)N[C@H](CN(C)C)c2ccccc2)C3(C)C)c2sccc2n1
Procedure, shortened: as §1

dasatinib = compound: Cc1nc(Nc2ncc(C(=O)Nc3c(C)cccc3Cl)s2)cc(N2CCN(CCO)CC2)n1 [dasatinib]
Procedure, shortened: as §1

[5] = compound: Cc1ncc(-c2ccnc(Nc3ccc(S(C)(=O)=O)cc3)n2)n1C(C)C
Procedure, shortened: as §1

[6] = compound: Cn1cc(-c2ccc3c(c2)CCN3C(=O)Cc2cccc(C(F)(F)F)c2)c2c(N)ncnc21
Procedure, shortened: as §1

[7] = compound: Cn1cc(-c2ccc3nnc(C(F)(F)c4ccc5ncccc5c4)n3n2)cn1
Procedure, shortened: as §1

tipifarnib = compound: Cn1cncc1[C@@](N)(c1ccc(Cl)cc1)c1ccc2c(c1)c(-c1cccc(Cl)c1)cc(=O)n2C [tipifarnib]
Procedure, shortened: as §1

mubritinib = compound: FC(F)(F)c1ccc(/C=C/c2nc(COc3ccc(CCCCn4ccnn4)cc3)co2)cc1 [mubritinib]
Procedure, shortened: as §1

[8] = compound: CS(=O)(=O)c1ccc(-c2cnc(N)c(C(=O)Nc3ccccc3)n2)cc1
Procedure, shortened: as §1

[9] = compound: C[C@@H]1COCCN1C2=NC(=NC(=C2)C3(CC3)S(=O)(=O)C)C4=C5C=CNC5=CC=C4
Procedure, shortened: as §1

duvelisib = compound: C[C@H](Nc1ncnc2nc[nH]c12)c1cc2cccc(Cl)c2c(=O)n1-c1ccccc1 [duvelisib]
Procedure, shortened: as §1

tozasertib = compound: Cc1cc(Nc2cc(N3CCN(C)CC3)nc(Sc3ccc(NC(=O)C4CC4)cc3)n2)n[nH]1 [tozasertib]
Procedure, shortened: as §1

crizotinib = compound: C[C@@H](Oc1cc(-c2cnn(C3CCNCC3)c2)cnc1N)c1c(Cl)ccc(F)c1Cl [crizotinib]
Procedure, shortened: as §1

doramapimod = compound: Cc1ccc(-n2nc(C(C)(C)C)cc2NC(=O)Nc2ccc(OCCN3CCOCC3)c3ccccc23)cc1 [doramapimod]
Procedure, shortened: as §1

Measured: log2 fold change

RAB3D (UniProt O95716)
inactive: [1] -0.031 | gandotinib 0.083 | [2] -0.115 | ispinesib 0.2 | bafetinib -0.142 | [3] -0.052 | nilotinib 0.01 | [4] 0.066 | dasatinib 0.221 | [5] -0.116 | [6] 0.075 | [7] -0.201 | tipifarnib 0.065 | mubritinib 0.285

RAB11FIP5 (UniProt Q9BXF6)
inactive: ispinesib -0.052 | [7] -0.025 | tipifarnib 0.128

RAPGEF1 isoform 3 (UniProt Q13905)
inactive: [8] -0.037 | bafetinib -0.195 | mubritinib 0.15

RAD51B (UniProt O15315)
inactive: [8] 0.005 | [9] 0.118 | [1] 0.003 | duvelisib 0.219 | gandotinib 0.117 | tozasertib -0.079 | [2] 0.123 | bafetinib 0.034 | [3] -0.143 | nilotinib -0.023 | [4] -0.063 | dasatinib -0.107 | [5] -0.032 | [6] 0.004 | tipifarnib 0.053 | mubritinib 0.028

RAI1 (UniProt Q7Z5J4)
inactive: [8] 0.127 | [9] 0.206 | ispinesib -0.43 | bafetinib -0.292 | nilotinib 0.048 | [4] -0.028 | [5] -0.345 | [7] 0.219 | mubritinib -0.071

RBM28 (UniProt Q9NW13)
inactive: [8] -0.067 | [9] -0.192 | [1] 0.077 | ispinesib -0.117 | bafetinib -0.191 | [6] 0.012 | [7] -0.009 | tipifarnib 0.263 | mubritinib 0.109

RASSF3 (UniProt Q86WH2)
inactive: [1] 0.075 | gandotinib -0.037 | ispinesib -0.066 | bafetinib 0.045 | [3] -0.049 | nilotinib 0.006 | [4] 0.107 | [5] -0.081 | [6] 0.008 | [7] -0.067 | tipifarnib 0.075 | mubritinib 0

RAB30 (UniProt Q15771)
inactive: crizotinib 0.115 | [9] -0.028 | [1] -0.215 | duvelisib -0.117 | gandotinib -0.098 | [2] 0.009 | doramapimod -0.066 | ispinesib 0.05 | bafetinib -0.081 | [3] 0.033 | nilotinib 0.039 | [4] -0.033 | dasatinib 0.022 | [5] -0.037 | [6] -0.151 | [7] -0.012 | tipifarnib -0.046 | mubritinib 0.059

RACK1 (UniProt D6RHH4)
inactive: [8] 0.478 | [9] -0.177 | [1] 0.34 | duvelisib 0.014 | gandotinib 0.032 | tozasertib -0.256 | [2] -0.242 | bafetinib -0.496 | [3] -0.627 | nilotinib -0.144 | [4] 0.141 | dasatinib 0.269 | [5] 0.018 | [6] -0.037 | tipifarnib 0.2 | mubritinib -0.103

RBBP4 isoform 2 (UniProt Q09028)
inactive: [1] 0.254 | duvelisib 0.101 | gandotinib 0.047 | [2] -0.035 | bafetinib -0.023 | [3] -0.142 | dasatinib 0.046 | [6] -0.105 | mubritinib -0.05

RAB18 (UniProt H0Y6T8)
inactive: crizotinib -0.012 | [1] 0.327 | tozasertib -0.072 | doramapimod 0.089 | bafetinib -0.072 | nilotinib -0.124 | [4] 0.019 | [5] -0.102 | [6] 0.033 | mubritinib 0.018

RBCK1 (UniProt Q9BYM8)
inactive: [9] -0.028 | [1] 0.143 | duvelisib -0.164 | tozasertib 0.062 | [2] 0.17 | dasatinib 0.009 | [6] 0.03 | tipifarnib -0.464

RBM14 (UniProt Q96PK6)
inactive: crizotinib -0.025 | [1] 0 | duvelisib 0.046 | gandotinib 0.028 | tozasertib -0.101 | [2] 0.08 | doramapimod 0.026 | ispinesib -0.057 | bafetinib -0.004 | [3] -0.165 | dasatinib -0.094 | [6] -0.051 | [7] -0.05 | tipifarnib 0.228 | mubritinib -0.077

RAB28 (UniProt P51157)
inactive: crizotinib -0.132 | [1] 0.216 | duvelisib 0.015 | gandotinib -0.004 | [2] 0.041 | doramapimod 0.028 | ispinesib -0.093 | [3] -0.031 | dasatinib 0.099 | [6] -0.157 | [7] 0.002

RAP2C (UniProt Q9Y3L5)
active: gandotinib -0.742
inactive: [8] -0.046 | [9] 0.007 | [1] -0.144 | [2] -0.108 | ispinesib 0.009 | bafetinib 0.115 | [3] 0.157 | nilotinib 0.181 | [4] 0.069 | dasatinib 0.018 | [5] 0.019 | [6] 0.047 | [7] -0.032 | tipifarnib 0.086 | mubritinib 0.041

RAB3B (UniProt P20337)
inactive: [8] 0.005 | gandotinib 0.195 | tozasertib 0.043 | ispinesib -0.296 | [3] -0.224 | [7] -0.157 | tipifarnib 0.205

RBBP5 isoform 2 (UniProt Q15291)
inactive: [8] 0.055 | [9] 0.069 | gandotinib -0.003 | tozasertib 0.058 | ispinesib -0.074 | bafetinib 0.248 | [3] -0.485 | nilotinib -0.036 | [4] 0.095 | [5] -0.093 | [7] -0.009 | tipifarnib -0.076 | mubritinib -0.041

RAI14 isoform 2 (UniProt Q9P0K7)
inactive: [8] -0.045 | [9] 0.044 | [1] -0.247 | duvelisib 0.119 | gandotinib -0.022 | tozasertib -0.026 | [2] -0.007 | ispinesib -0.139 | bafetinib -0.09 | [3] 0.125 | nilotinib -0.108 | [4] -0.046 | dasatinib -0.063 | [5] 0.004 | [6] -0.058 | [7] 0.062 | tipifarnib -0.061 | mubritinib -0.013

RBL1 (UniProt P28749)
inactive: gandotinib -0.027 | bafetinib -0.096 | [3] -0.393 | nilotinib 0.121 | [4] -0.009 | [5] 0.016

RASA3 (UniProt Q14644)
inactive: [1] 0.172 | duvelisib 0.41 | gandotinib 0.222 | [2] 0.041 | [3] -0.137 | dasatinib -0.073 | [6] -0.519

Reprinted from the listing (two entries):
RAI14 isoform 2 (UniProt Q9P0K7)
inactive: [8] -0.045 | [9] 0.044 | [1] -0.247 | duvelisib 0.119 | gandotinib -0.022 | tozasertib -0.026 | [2] -0.007 | ispinesib -0.139 | bafetinib -0.09 | [3] 0.125 | nilotinib -0.108 | [4] -0.046 | dasatinib -0.063 | [5] 0.004 | [6] -0.058 | [7] 0.062 | tipifarnib -0.061 | mubritinib -0.013

RBL1 (UniProt P28749)
inactive: gandotinib -0.027 | bafetinib -0.096 | [3] -0.393 | nilotinib 0.121 | [4] -0.009 | [5] 0.016

More records follow.

RAD51D (UniProt O75771)
inactive: crizotinib -0.207 | [1] -0.052 | duvelisib 0.102 | gandotinib -0.383 | tozasertib -0.127 | [2] -0.077 | doramapimod 0.038 | ispinesib -0.396 | bafetinib 0.117 | [3] -0.174 | nilotinib 0.101 | [4] -0.127 | dasatinib -0.128 | [5] -0.035 | [6] 0.178 | [7] -0.12 | tipifarnib -0.107 | mubritinib 0.036
